PubChem BioAssay AID2417 (National Center for Advancing Translational Sciences (NCATS), 2010)
Screen size: about 140,000 compounds; about 4,300 (3.1%) were called active. The shares of active, inactive and inconclusive entries below differ from those in the screen.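 Rule for the calls: active = readout at or below -70, meaning at least 70% loss of cells showing the perinucleolar compartment, a nuclear body marking cancer cells; inconclusive = readout between -30 and a set limit; inactive = the rest.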

experiment: High Content Assay for Compounds that inhibit the Assembly of the Perinucleolar Compartment; details: PC3M PTB-GFP, PNC prevalence imaging, 16 h; at 10 µM; hits give low values;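 note: plate controls were DMSO wells for no effect and camptothecin positive control wells for full effect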
Method in brief: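 PC3M cells stably expressing PTB-GFP, 750–1000 cells/well, treated 16 h at 37 °C with compound (23 nl of library stock), in duplicate. After paraformaldehyde fixation and Hoechst stain, imaged at 20x; PNC prevalence scored by image analysis.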

| SMILES | activity change (PNC), negative = inhibition |
| --- | --- |
| O=C(c1ccc(Br)o1)N1CCN=C1SCc1cccnc1 | inconclusive: -63.4% |
| CN1CCN(c2ccc([N+](=O)[O-])c(Sc3nc4ccccc4[nH]3)c2)CC1 | inconclusive: -31.2% |
| O=C(COc1ccc(S(=O)(=O)N2CCOCC2)cc1)Nc1ccc2c(c1)OCCO2 | inactive: 1.25% |
| O=C(Nc1cccnc1)C1OCCc2ccccc21 (configuration not stated) | inconclusive: -30.1% |
| CC(=O)OC[C@H]1O[C@@H](O/N=C(\C)CCN2CCCCc3nc(C)c(C)cc32)[C@H](OC(C)=O)[C@@H](OC(C)=O)[C@@H]1OC(C)=O | inconclusive: -40.6% |
| COc1cc(C=O)ccc1OS(=O)(=O)c1ccc(NC(C)=O)cc1 | inactive: 10.7% |
| COc1cccc(Cn2c(N)c(C#N)c3nc4ccccc4nc32)c1OC | inconclusive: -40.4% |
| CCCCCCC(=O)Nc1nc(C)c(-c2csc(Nc3ccc(Cl)cc3)n2)s1 | inconclusive: -31.8% |
| COC(=O)c1cn(Cc2ccccc2C)nn1 | inactive: -0.0295% |
| Cc1csc(NC(=O)c2nc3nc(C)cc(C)n3n2)n1 | active: -95.4% |
| CCSc1nc(-c2ccccc2)c2cc(Cl)ccc2n1 | inactive: 9.83% |
| C=CCOC(=O)C1=C(C)NC(SCC(=O)Nc2ccccc2)=C(C#N)C1c1ccco1 (configuration not stated) | inactive: 10.3% |
| CCOc1ccccc1NC(=O)N1CCC(c2nc3ccccc3[nH]2)CC1 | inconclusive: -33.3% |
| CNC(=O)CN1C(=O)C2C3C=CC(C3)C2C1=O (configuration not stated) | inconclusive: -49.2% |
| CC(C)OC(=O)c1c(NC(=O)CCn2nnc3ccccc32)sc2c1CCCC2 | inconclusive: -73.3% |
| O=C(CSc1nc2ccccc2c(=O)[nH]1)N1CCOCC1 | inactive: 17.7% |
| O=C(Cc1cn2ccsc2n1)Nc1ccccc1Oc1ccccc1 | inconclusive: -72.6% |
| CCC(Sc1nc2n[nH]c(C)c2c(=N)n1-c1cc(Cl)ccc1C)C(=O)N1CCOCC1 (configuration not stated) | inconclusive: -67.6% |
| CC1(C)C2CCC1(C)C(OC(=O)CC(=O)O)C2 (configuration not stated) | inconclusive: -30.1% |
| O=c1[nH]c2ccc(S(=O)(=O)N3CCC(Cc4ccccc4)CC3)cc2o1 | inactive: -23.8% |
| Cc1ccc(OCC(=O)N2CCN(S(=O)(=O)c3ccccc3)CC2)c([N+](=O)[O-])n1 | inconclusive: -41.8% |
| CC1CCCCN1C(=O)CSc1nc(C2CC2)nc2c1cnn2-c1ccccc1 (configuration not stated) | inactive: -19% |
| COc1ccc(N2CCN(C(c3cc(OC)ccc3OC)c3nnnn3CC3CCCO3)CC2)cc1 (configuration not stated) | inconclusive: -48.4% |

| SMILES | activity change (PNC), negative = inhibition |
| --- | --- |
| CN1CCN(CCCNC(=O)Cn2nc(-c3ccccc3)ccc2=O)CC1 | inconclusive: -39.1% |
| O=C(/C=C/c1cccc([N+](=O)[O-])c1)Nc1cccc(NC(=O)c2cccs2)c1 | inconclusive: -35.3% |
| Cc1ccc(S(=O)(=O)N(C)CC(=O)OCC(=O)c2c(N)n(C)c(=O)n(C)c2=O)cc1 | inconclusive: -40.6% |
| Cc1cc2cc(CNC(=O)c3ccc4c(c3)OCO4)ccc2[nH]1 | inconclusive: -45.4% |
| S=C(NCCc1ccccc1)Nc1ccc(Cl)cc1Cl | inactive: -6.36% |
| O=C(NCCc1nc2ccccc2[nH]1)/C(=C/c1ccc2c(c1)OCO2)NC(=O)c1ccccc1 | inconclusive: -46.3% |
| C/C=C(\C)c1nnc(NC(=O)c2ccco2)s1 | inconclusive: -61.7% |
| COc1ccccc1Cc1noc(C(C)(C)NC(=O)c2ccccc2)n1 | inconclusive: -47.6% |
| O=C(Cn1cnc2ccccc21)OCC(=O)N1CCCc2ccccc21 | inactive: -18.9% |
| O=C(Cc1ccccc1)Nc1cccc(N2C(=O)C=CC2=O)c1 | inconclusive: -36.4% |
| CC(=O)NCCOc1cccc(OCCNC(C)=O)c1 | inconclusive: -40.4% |
| Cc1ccc(S(=O)(=O)N2CCOCC2)cc1NC(=O)c1cc2c(s1)CCC2 | inactive: 3.69% |
| O=C(NCc1cccc(Cl)c1)c1ccc2c(c1)OCO2 | inconclusive: -54.6% |
| CC(=O)c1ccc(Cc2ncc(C(F)(F)F)cc2Cl)s1 | inconclusive: -63.9% |
| CCOc1ccc(CC(C(=O)NN)C(=O)NN)cc1CN(C)C | inconclusive: -48% |
| Cc1cc(C(=O)Nc2nc3c(s2)CCCC3)no1 | active: -107% |
| CC1(c2ccccc2)NC(=O)N(Cc2ccc([N+](=O)[O-])cc2)C1=O (configuration not stated) | inactive: 8% |
| CCOc1nc(-c2ccccc2O)nc2ccccc12 | inconclusive: -38.9% |
| Cn1c(=O)c2c(nc(SCc3cccnc3)n2Cc2ccc(F)cc2)n(C)c1=O | inactive: -4.67% |
| COc1ccc(Cl)cc1NC(=O)CSc1nnc(Cc2cccn2C)n1-c1ccc(F)cc1 | active: -85.1% |
| Cc1ccc(OCC(=O)Nc2ccc(O)c(C(=O)O)c2)cc1C | inconclusive: -53.3% |
| Cc1nn(-c2ccc(F)cc2)c2sc(C(=O)OCC(=O)N3CCC(C)CC3)cc12 | inconclusive: -53.1% |
| Nc1nc(SCC(=O)Nc2ccc(Oc3ccccc3)cc2)n[nH]1 | inconclusive: -36% |

In another format: 2 of the compounds above.
SMILES,"activity change (PNC), negative = inhibition"
CC1(c2ccccc2)NC(=O)N(Cc2ccc([N+](=O)[O-])cc2)C1=O (configuration not stated),inactive: 8%
Cc1nn(-c2ccc(F)cc2)c2sc(C(=O)OCC(=O)N3CCC(C)CC3)cc12,inconclusive: -53.1%

Remaining list, next part

| SMILES | activity change (PNC), negative = inhibition |
| --- | --- |
| CCOC(=O)/C(C#N)=C1/C=CN(c2ccccc2)C=N1 | inactive: -9.75% |
| CCNC(=O)c1cc2ccccc2o1 | inactive: 21% |
| CCN(CC(=O)Nc1ccc(N2CCOCC2)cc1)Cc1nc2ccccc2c(=O)[nH]1 | inactive: 19.2% |
| CCn1c(Cc2c(C)[nH]c3ccccc23)nnc1SCC(N)=O | inconclusive: -46.6% |
| CC(C)CCn1c(CN2CCN(Cc3ccccc3)CC2)nc2c1c(=O)n(C)c(=O)n2C | inconclusive: -55.3% |
| COc1ccc(NC(=O)C2CCCN(S(=O)(=O)c3ccc4c(c3)oc(=O)n4C)C2)cc1OC (configuration not stated) | inactive: 10.4% |
| CSc1ccc(/C=C/C(=O)c2ccc(NC(=O)Cc3ccccc3)cc2)cc1 | inconclusive: -39.1% |
| CCOc1ccc(NC(=O)CSc2nc3cccnc3n2CCOC)cc1 | inactive: -7.83% |
| CN1CCc2c(sc3c2C(=O)NC(c2ccc4c(c2)OCO4)N3)C1 (configuration not stated) | inconclusive: -56.7% |
| Cc1ccc(-c2nn(C)c(=O)c3ccccc23)cc1CN1CCOCC1 | inconclusive: -53.6% |
| COc1cccc(C(=O)NCCn2ccc3ccccc32)c1 | inconclusive: -50% |
| CCCc1nc2scc(-c3ccccc3)c2c(=O)n1N | inconclusive: -32.2% |
| Nc1nnc(CSc2ccc(Cl)cc2)s1 | inconclusive: -51% |
| OCCSc1ncnc2c1oc1ccccc12 | inactive: -16.4% |
| CCCCOc1cccc(C(=O)NNC(=S)NC2CCCCC2)c1 | inconclusive: -69.1% |
| CN(CCOC(=O)c1cccc(F)c1)Cc1ccccc1 | inconclusive: -77.7% |
| COc1cc(C(=O)NCc2ccccc2)cc(Br)c1OC | inconclusive: -45.3% |
| CC(C)C(=O)N(Cc1ccccc1)c1ccccn1 | inconclusive: -45.6% |
| COC(=O)c1cc(=O)n(CCc2ccccc2F)c(=Nc2ccc(F)c(Cl)c2)s1 | inactive: 30% |
| C=CCn1c(NCc2cc(C)ccc2O)nc2ccccc21 | inconclusive: -38.7% |
| CCc1nnc(N2C(=O)c3cccc4cccc(c34)C2=O)s1 | inconclusive: -45.2% |
| Cc1cc(C)c2cc(C#N)c(SCC(=O)NCc3ccco3)nc2c1 | inconclusive: -53.4% |
| Cc1cccc(NC(=O)Cc2noc3ccccc23)c1C | inconclusive: -69% |

An excerpt of these results, as comma-separated lines:
SMILES,"activity change (PNC), negative = inhibition"
Nc1nc(SCC(=O)Nc2ccc(Oc3ccccc3)cc2)n[nH]1,inconclusive: -36%
CCOC(=O)/C(C#N)=C1/C=CN(c2ccccc2)C=N1,inactive: -9.75%
CCNC(=O)c1cc2ccccc2o1,inactive: 21%
CCN(CC(=O)Nc1ccc(N2CCOCC2)cc1)Cc1nc2ccccc2c(=O)[nH]1,inactive: 19.2%
CCn1c(Cc2c(C)[nH]c3ccccc23)nnc1SCC(N)=O,inconclusive: -46.6%
CC(C)CCn1c(CN2CCN(Cc3ccccc3)CC2)nc2c1c(=O)n(C)c(=O)n2C,inconclusive: -55.3%
COc1ccc(NC(=O)C2CCCN(S(=O)(=O)c3ccc4c(c3)oc(=O)n4C)C2)cc1OC (configuration not stated),inactive: 10.4%
CSc1ccc(/C=C/C(=O)c2ccc(NC(=O)Cc3ccccc3)cc2)cc1,inconclusive: -39.1%
CCOc1ccc(NC(=O)CSc2nc3cccnc3n2CCOC)cc1,inactive: -7.83%
CN1CCc2c(sc3c2C(=O)NC(c2ccc4c(c2)OCO4)N3)C1 (configuration not stated),inconclusive: -56.7%
Cc1ccc(-c2nn(C)c(=O)c3ccccc23)cc1CN1CCOCC1,inconclusive: -53.6%
COc1cccc(C(=O)NCCn2ccc3ccccc32)c1,inconclusive: -50%
OCCSc1ncnc2c1oc1ccccc12,inactive: -16.4%
CCCCOc1cccc(C(=O)NNC(=S)NC2CCCCC2)c1,inconclusive: -69.1%
CN(CCOC(=O)c1cccc(F)c1)Cc1ccccc1,inconclusive: -77.7%
COc1cc(C(=O)NCc2ccccc2)cc(Br)c1OC,inconclusive: -45.3%
CC(C)C(=O)N(Cc1ccccc1)c1ccccn1,inconclusive: -45.6%
C=CCn1c(NCc2cc(C)ccc2O)nc2ccccc21,inconclusive: -38.7%
CCc1nnc(N2C(=O)c3cccc4cccc(c34)C2=O)s1,inconclusive: -45.2%
Cc1cc(C)c2cc(C#N)c(SCC(=O)NCc3ccco3)nc2c1,inconclusive: -53.4%
Cc1cccc(NC(=O)Cc2noc3ccccc23)c1C,inconclusive: -69%

Later entries:

| SMILES | activity change (PNC), negative = inhibition |
| --- | --- |
| COc1ccccc1N(CC(=O)Nc1cccnc1)S(C)(=O)=O | inactive: -6.96% |
| CCC(=O)N1CCc2cc(S(=O)(=O)CCC(=O)NCCc3ccccc3)ccc21 | inactive: 0.405% |
| CCOc1ccc2c(CC)cc(=O)oc2c1OCC | inconclusive: -55% |
| Cc1ccc(C2C(C#N)=C(N)Oc3n[nH]c(-c4cccs4)c32)cc1 (configuration not stated) | inconclusive: -52.7% |
| CCOC(=O)c1ccc(N2C(=O)CC(N3CCC(Nc4ccc(F)cc4)CC3)C2=O)cc1 (configuration not stated) | inactive: 23.8% |
| COc1cccc2c(=O)n(CC(=O)N3CCC(C)CC3)ccc12 | inconclusive: -40.3% |
| CC(=O)Nc1ccc(NC(=O)C(Cc2ccccc2)NC(=O)C2CCCCC2)cc1 (configuration not stated) | active: -119% |
| NC(=O)/C(=N\OC(=O)c1ccco1)c1nc(-c2ccc(Br)cc2)cs1 | inactive: 2.69% |
| CCN(CC)CC#CCC(C)(c1ccccc1)c1ccccc1 | inactive: 1.07% |
| Cn1c(=O)c2c(nc(NCc3cccnc3)n2Cc2ccc(Cl)cc2)n(C)c1=O | inactive: 14% |
| CCOC(=O)Cc1c(C)nc2cc(-c3ccc(C)cc3)[nH]n2c1=O | inactive: -6.81% |
| COc1cccc(CNC(=O)C2CCC(CNS(=O)(=O)c3cccc4nsnc34)CC2)c1 (configuration not stated) | active: -106% |
| O=C(c1cccs1)N1CCN(Cc2ccncc2)CC1 | inconclusive: -57.4% |
| Cc1cccc2c1nc(-c1ccccc1)n1cnnc21 | inconclusive: -63.2% |
| CCCOc1cccc(C(=O)O)c1 | inconclusive: -49.5% |
| Cc1nc(NC(=O)COc2ccccc2)sc1C(=O)Nc1ccccc1 | inconclusive: -46% |
| Cc1ccc(Nc2c(-c3ccc(C)o3)nc3cnccn23)cc1 | inactive: -28.6% |
| CCOc1ccc(C2CC(c3ccc(CC)cc3)n3nc(N)nc3N2)cc1 (configuration not stated) | inconclusive: -40.9% |
| O=C(COC(=O)c1cc(S(=O)(=O)N2CCOCC2)ccc1F)c1ccc[nH]1 | inconclusive: -79.3% |
| COc1ccc(OC)c2c(N3CCN(C)CC3)cc(C(F)(F)F)nc12 | inconclusive: -31.3% |
| CCn1cc(/C=N\NC(=O)c2ccc(Cl)cc2)cn1 | inconclusive: -48.4% |
| O=C(NC1CCCC1)c1csc2c1CCCC2 | inactive: 1.78% |
| COc1ccc(Br)cc1S(=O)(=O)NCc1ccccc1 | inconclusive: -43.8% |
